Measurements from publication PMC4297671.
These are yes or no findings as the source states them, for the method shown. In cells and extracts the contact can be indirect. These calls come from enrichment with a bait or labelling near it, and not all partners need be listed. For some assays here: A no says only that the protein was not detected with the bait. Blank lines part the entries; values can stand above or below the molecule they belong to.

How the values were obtained:
[1] = target: T1, human salivary amylase (human) (UniProt P0DUB6); assay: affinity purification with mass spectrometry; purified human salivary amylase (50 μg/ml) added to filtered culture supernatant of S. gordonii KS1 (wild type), room temperature, 2 h, static; precipitate collected at 5,000×g; SDS-PAGE, five gel slices, nano-LC/MS/MS; only the target purified
T1 sequence: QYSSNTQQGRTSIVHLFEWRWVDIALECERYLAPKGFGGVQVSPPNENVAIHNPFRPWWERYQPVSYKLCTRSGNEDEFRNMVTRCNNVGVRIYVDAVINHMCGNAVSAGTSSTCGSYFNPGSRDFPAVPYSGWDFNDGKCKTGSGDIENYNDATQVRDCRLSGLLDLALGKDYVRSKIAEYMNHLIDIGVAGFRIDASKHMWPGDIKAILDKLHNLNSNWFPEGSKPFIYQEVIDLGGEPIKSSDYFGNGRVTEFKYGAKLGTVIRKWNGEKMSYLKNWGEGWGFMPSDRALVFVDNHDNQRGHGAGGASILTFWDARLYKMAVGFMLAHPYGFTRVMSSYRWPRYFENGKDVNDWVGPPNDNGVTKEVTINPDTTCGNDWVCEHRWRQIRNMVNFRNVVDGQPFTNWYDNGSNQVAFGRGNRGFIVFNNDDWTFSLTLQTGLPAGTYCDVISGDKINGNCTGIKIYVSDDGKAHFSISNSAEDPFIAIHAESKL

[2] = target: T1, human salivary amylase (human); assay: condition: only culture supernatant of the AbpA-deficient (ΔAbpA) strain; amylase 50 μg/ml; affinity purification with mass spectrometry; purified human salivary amylase (50 μg/ml) added to filtered culture supernatant of the AbpA-deficient strain ΔAbpA (KS1ΩabpA), room temperature, 2 h, static; precipitate collected at 5,000×g; SDS-PAGE, five gel slices, nano-LC/MS/MS; only the target purified
[3] = target: T1, human salivary amylase (human); assay: affinity purification with mass spectrometry; purified human salivary amylase (50 μg/ml) added to filtered culture supernatant of the AbpA-deficient strain ΔAbpA (KS1ΩabpA), room temperature, 2 h, static; precipitate collected at 5,000×g; SDS-PAGE, five gel slices, nano-LC/MS/MS; only the target purified

- binding [1]: binds
- binding [2]: no binding
Molecule: cardiolipin synthase (SGO_2037) (from UniProt A8AZS5)

Molecule: Isopropylmalate isomerase large subunit (from UniProt A8AWP5)
- binding [1]: binds
- binding [3]: binds

- binding [1]: binds
- binding [2]: no binding
Molecule: sortase A (SGO_1230) (from UniProt Q9F0P0)

- binding [1]: binds
- binding [2]: no binding
B1: cation-transporting ATPase YfgQ (T3 secretion) (SGO_1458) (protein, UniProt A8AY77 1-780)
chain: MHQNQFQGLSQAQVEERRQKGLTNQVTISTEKTTWQIVQSNIFTYFNFIFLVLAILLVLVQSWNNLLFVPIVVINSLIGIFQELRARKVLNKMRLLHTFSANVIRDGEEQVVSVEELVQDDVVKFSAGNQIYADGQILSGSLKVNESQLTGEADEIEKNPGDEVLSGSFVVAGQAYARLDKVGDQAYINQLAKEAKEISGVEESKMVHAVNRLVQIIGILIIPLGIMLFFRSFISNQETFQVSVTSTVGAIVGMIPEGLYLLMTLALVLGAMRLAKQKVLLNSMKGIETLSRVDVLCVDKTGTITENSMTVSQLIPVGDQKEVALEALSHYLEASQDTNDTIETLRAYPGIEKSGQAWSIKRQYPFSSKNKYAAVAFDQGTFVLGAPEYVLRRDLEHYQSYFQEVAEEGSRVLVFGRYEGENLEAGLEAPVIPFLFIVLENPVRENAAETFSYFERQGVTVKVISGDNPLTVSAVAKKAKIPHAENYVDARSLDSDEKIIQAAETYTVFGRVSPEQKQKLVQALQGQGHNVAMTGDGVNDILAMKKADCSIAMESGNDATKQIAQVVLLDSDFSHMPHIVAEGRRVVNNIQRSASLFLVKNIFSILLALTSTIFAFTYPLQASQMSLISGFTIGIPGFLLALEPNKERIRGRFLETVLKNALPAAIVDYLAVLVAVYCGHWLGLSPKEISTSSIILLAVVGFTIMYKLIRPLNRIKIGIMLLNIIGMILAALLLPRIFNLSGLSIAAILMTVLLSLLLERLIWFFQFLTNKAVALYKKRK

- binding [1]: binds
- binding [2]: no binding
B2: Hypothetical protein SGO_0483 (protein, UniProt A8AVI9 1-302)
chain: MSITFSVSNKRGLLGFQKVLKISELLGLVDGLEPHPAQKDSLALGLDKLPLLKCWVPAKSGRYMDVEYDKTHKTYNVRILTPSTLADWEYALTLVSKLSAYLGTSIHDEHGREYSSSSVLAFPYQEDILLGLENFLKSGYPLVYQDGVRRRIALNPQMVEGFLKEDNPAQSYSNFFTLRQYLDAYDAQSKFYGNEQNQQILGVYTLTAGVDTILPFELSLAPEDVEYIDESKLSWCCNLVGCDDTDPDNVEKFFFYKRISYSDFLDRLPKDMAQVFDGEKIYVPAMTFAQMKDLFDSCPELV

- binding [1]: binds
- binding [2]: no binding
B3: isocitrate dehydrogenase (SGO_1611) (protein, UniProt A8AYM8 1-399)
chain: MADKILFEKGRLQVPDAPIIPYIQGDGIGVDIWKNAQLIFDEAVEKAYGGQRKVVWKEVLAGEKASDLTGNWLPDETLTTIKDCLVAIKGPLETPVGEGIRSLNVALRQELDLYACLRPVRYFKGVPSPLKHPEKTDITIFRENTEDIYAGIEWESGTTAVQKVIDFLQEDMQVDKIRFPKSSAIGIKPISKQGSERLIRAAIDYALAKGRLRRVTLVHKGNIQKFTEGGFRKWGYELAQREYADELASRKLIIQDVIADNFLQQILLYPEKFDVVALTNLNGDYASDALAAQVGGIGIAPGANINYETGHAIFEATHGTAPDIAGQNKANPCSLLLSGAMLFDYIGWSEVSHLLTKAVEKALFEQKVTGDFASQLEGVTALTTSQFAEELLANIEKCP

- binding [1]: binds
B4: Argininosuccinate synthase (protein, UniProt A8AUN6 1-399)
chain: MVKEKVILAYSGGLDTSVAITWLNKDYDVIAVCMDVGEGNDLDFIHDKALKVGAIESHVIDVKDEFAEDYVLVALQGHTFYEQKYPLVSALSRPLISKKLVEIAHKTGATTIAHGCTGKGNDQVRFEVAIASLDPSLKVIAPVREWKWSREEEINYAKANGVPIPADLDSPYSVDQNLWGRANECGVLENPWNEAPEDAYDLTVAPEAAPDSPVYVNIDFEAGVPVALDGKKMKLADLILELNDLAGQHGVGRIDHVENRLVGIKSREIYECPGAVTLLAAHKEIEDLTLVRELAHFKPIIENELSNLIYNGLWFNPATEALIAYLKSTQQVVNGTAKVKLYKGSATVVARKSDNSLYDESLATYTSADTFDQDAAIGFIKLWGLPSKVHAEVQAHKDK

- binding [1]: binds
B5: Peptide chain release factor 1 (protein, UniProt P47850 1-359)
chain: MNIYEQLQAVEDRYEELGELLSDPDVVSDTKRFMELSKEEASTRDTVTAYREYKQVLQNIVDAEEMIKESGGDADLEEMAKQELKDAKAEKEEYEEKLKILLLPKDPNDDKNIILEIRGAAGGDEAQLFAGDLLQMYQKYAESQGWRFEVMEASYNGVGGIKEVVAMVSGQSVYSKLKYESGAHRVQRVPVTESQGRVHTSTATVLVMPEIEEVEYDIDPKDLRVDIYHASGAGGQNVNKVATAVRIVHLPTNIKVEMQEERTQQKNRDKAMKIIRARVADHFAQIAQDEQDAERKSTIGTGDRSERIRTYNFPQNRVTDHRIGLTLQKLDTILAGKLDEVVDALVLYDQTQKLEELNK
